In paper doi:10.1101/2025.10.10.681672:
These are yes or no findings as the source states them, for the method shown. Binding seen in cells or lysates may run through a third protein. For part of these data: Binding calls can cover weak binding; strength is not graded here.

Amino acid sequences for entries named in this document (tags omitted). A change or cut given only in a name is not applied to a line headed by its entry.
UniProt P09082: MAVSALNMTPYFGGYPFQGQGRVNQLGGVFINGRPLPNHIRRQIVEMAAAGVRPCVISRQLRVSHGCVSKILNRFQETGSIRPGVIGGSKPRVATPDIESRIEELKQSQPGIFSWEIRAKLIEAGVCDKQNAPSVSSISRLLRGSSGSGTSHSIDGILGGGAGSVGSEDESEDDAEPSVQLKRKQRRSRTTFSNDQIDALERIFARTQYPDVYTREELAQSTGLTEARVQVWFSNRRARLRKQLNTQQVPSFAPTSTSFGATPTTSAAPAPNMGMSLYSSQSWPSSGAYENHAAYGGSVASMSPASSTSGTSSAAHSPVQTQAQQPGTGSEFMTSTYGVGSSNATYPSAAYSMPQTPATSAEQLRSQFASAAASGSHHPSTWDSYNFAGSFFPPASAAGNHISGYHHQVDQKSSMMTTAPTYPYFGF
UniProt P02835: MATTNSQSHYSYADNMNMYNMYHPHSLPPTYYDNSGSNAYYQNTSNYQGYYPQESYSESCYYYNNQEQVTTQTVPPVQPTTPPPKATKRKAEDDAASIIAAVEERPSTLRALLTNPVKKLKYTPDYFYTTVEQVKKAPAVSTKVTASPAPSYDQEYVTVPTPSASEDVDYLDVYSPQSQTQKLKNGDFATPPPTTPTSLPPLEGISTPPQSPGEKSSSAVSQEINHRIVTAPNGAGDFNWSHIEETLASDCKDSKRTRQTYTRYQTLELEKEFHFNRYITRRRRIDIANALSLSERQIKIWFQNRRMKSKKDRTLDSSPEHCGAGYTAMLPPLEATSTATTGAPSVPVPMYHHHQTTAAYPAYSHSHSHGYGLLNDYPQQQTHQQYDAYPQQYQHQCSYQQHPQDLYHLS

Experiments:
Test in all cases: pull-down; purified MBP fusion proteins (5 ug) on amylose magnetic beads, washed with CHAPS lysis buffer + 1 M NaCl; incubated overnight at 4°C with S2R+ cell lysates expressing the kinase in CHAPS lysis buffer; six washes; western blot (NbVHH05-hIgG or anti-HA); only the target purified
[1] = biological target: MBP-tagged Gooseberry homeodomain fragment, wild type (Drosophila melanogaster) (UniProt P09082)
[2] = biological target: MBP-tagged Fushi tarazu homeodomain fragment, wild type (Drosophila melanogaster) (UniProt P02835)
[3] = biological target: MBP-tagged Gooseberry homeodomain fragment, 5A mutant (Drosophila melanogaster)

binding [1]: binds
binding [2]: binds
binding [3]: no binding
B1: aPKC-VHH05-3xHA (enzyme, UniProt A1Z9X0 1-606)
chain: MQKMPSQILNDGSSVSLNSASMNMANTPNSITVKTAYNGQIIITTINKNISYEELCYEIRNICRFPLDQPFTIKWVDEENDPCTISTKMELDEAIRLYEMNFDSQLVIHVFPNVPQAPGLSCDGEDRSIYRRGARRWRKLYRVNGHIFQAKRFNRRAFCAYCQDRIWGLGRQGFKCIQCKLLVHKKCHKLVQKHCTDQPEPLVKERAEESSDPIPVPLPPLPYEAMSGGAEACETHDHAHIVAPPPPEDPLEPGTQRQYSLNDFELIRVIGRGSYAKVLMVELRRTRRIYAMKVIKKALVTDDEDIDWVQTEKHVFETASNHPFLVGLHSCFQTPSRLFFVIEFVRGGDLMYHMQRQRRLPEEHARFYAAEISLALNFLHEKGIIYRDLKLDNVLLDHEGHIKLTDYGMCKEGIRPGDTTSTFCGTPNYIAPEILRGEDYGFSVDWWALGVLLYEMLAGRSPFDLAGASENPDQNTEDYLFQVILEKTIRIPRSLSVRAASVLKGFLNKNPADRLGCHRESAFMDIVSHPFFKNMDWELLERKQVTPPFKPRLDSDRDLANFPPEFTGEAVQLTPDDDHVIDNIDQSEFEGFEYVNPLLMSLEDCV
